In PMC12268348:
No constants are given. Whether binding was seen depends on the method and setting. Binding seen in cells or lysates may run through a third protein. Some binding calls cover weakened binding; strength is not graded here.

Chains of the proteins cited; added tags and fusions are not shown.
UniProt Q9JJ50: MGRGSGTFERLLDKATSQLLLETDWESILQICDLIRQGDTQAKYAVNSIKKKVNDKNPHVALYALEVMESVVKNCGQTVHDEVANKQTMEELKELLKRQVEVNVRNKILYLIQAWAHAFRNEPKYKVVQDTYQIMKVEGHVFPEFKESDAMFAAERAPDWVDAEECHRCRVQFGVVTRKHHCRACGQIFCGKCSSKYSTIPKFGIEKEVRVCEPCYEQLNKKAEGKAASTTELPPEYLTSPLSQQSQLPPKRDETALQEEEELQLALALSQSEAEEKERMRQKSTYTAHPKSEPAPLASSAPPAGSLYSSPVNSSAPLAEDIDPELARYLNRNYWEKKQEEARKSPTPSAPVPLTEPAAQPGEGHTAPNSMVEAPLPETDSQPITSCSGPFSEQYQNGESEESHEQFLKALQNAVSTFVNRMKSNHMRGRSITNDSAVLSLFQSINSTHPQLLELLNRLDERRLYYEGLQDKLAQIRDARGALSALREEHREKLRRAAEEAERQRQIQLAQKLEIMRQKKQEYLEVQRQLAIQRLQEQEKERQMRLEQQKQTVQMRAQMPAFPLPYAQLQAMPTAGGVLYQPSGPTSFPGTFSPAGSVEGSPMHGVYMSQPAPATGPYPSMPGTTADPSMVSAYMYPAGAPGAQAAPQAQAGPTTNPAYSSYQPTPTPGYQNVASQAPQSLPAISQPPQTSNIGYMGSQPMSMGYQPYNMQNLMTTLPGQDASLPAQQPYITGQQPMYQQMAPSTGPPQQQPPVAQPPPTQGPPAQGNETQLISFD

Target: T1, PPARγ coactivator PGC-1α (rat (endogenous in primary FLSs of SD rats)) (UniProt Q9QYK2)
T1 sequence: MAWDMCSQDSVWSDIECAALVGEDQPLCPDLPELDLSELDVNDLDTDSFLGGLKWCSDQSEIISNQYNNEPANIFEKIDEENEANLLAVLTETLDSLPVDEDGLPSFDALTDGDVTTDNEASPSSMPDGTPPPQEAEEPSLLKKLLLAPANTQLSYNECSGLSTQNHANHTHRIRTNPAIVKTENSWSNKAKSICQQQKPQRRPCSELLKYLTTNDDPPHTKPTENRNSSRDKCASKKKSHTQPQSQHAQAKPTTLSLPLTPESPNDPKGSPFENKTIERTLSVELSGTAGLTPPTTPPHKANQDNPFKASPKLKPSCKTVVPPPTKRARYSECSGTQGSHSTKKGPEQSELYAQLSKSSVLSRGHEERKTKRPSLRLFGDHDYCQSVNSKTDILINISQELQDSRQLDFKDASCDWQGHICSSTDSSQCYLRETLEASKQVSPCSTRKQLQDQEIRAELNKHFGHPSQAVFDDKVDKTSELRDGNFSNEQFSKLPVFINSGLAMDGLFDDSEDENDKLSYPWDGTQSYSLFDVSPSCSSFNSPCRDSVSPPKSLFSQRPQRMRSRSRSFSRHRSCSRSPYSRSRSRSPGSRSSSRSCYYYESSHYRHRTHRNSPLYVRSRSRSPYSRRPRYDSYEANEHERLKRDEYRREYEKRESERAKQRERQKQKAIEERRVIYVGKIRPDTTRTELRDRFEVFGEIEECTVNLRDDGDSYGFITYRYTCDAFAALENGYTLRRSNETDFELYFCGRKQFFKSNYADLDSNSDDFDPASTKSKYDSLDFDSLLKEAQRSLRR
Test: co-IP; endogenous proteins in lysates of rat primary FLSs (OE/KD PPARγ-treated); IP/Co-IP lysis buffer; antibody with Protein A/G magnetic beads, 4 °C overnight; washed thrice with lysis buffer; Western blot; IgG control

binding: binds
Substance: Hrs (ESCRT-0 subunit), hepatocyte growth factor-regulated tyrosine kinase substrate (from UniProt Q9JJ50 1-776)
